# Laboratory results as given in the odorant receptor screen of Mainland et al. (2015).
# Chains of the proteins cited; added tags and fusions are not shown. Chains listed by the source or under a name are the forms on record and can include a tag or linker.
# pseudo, as listed by the source: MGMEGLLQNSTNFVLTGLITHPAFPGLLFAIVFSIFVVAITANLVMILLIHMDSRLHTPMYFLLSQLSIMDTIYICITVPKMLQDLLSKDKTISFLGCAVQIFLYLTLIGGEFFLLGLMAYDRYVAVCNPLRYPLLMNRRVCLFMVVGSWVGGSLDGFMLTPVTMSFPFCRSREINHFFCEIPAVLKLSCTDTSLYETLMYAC
# Several values for one entry are separate records, joined by “and”; a condition that tells them apart may be missing. Equal values may be shown once. The list shows a part of the results. Single wells; the ratio to wells without odorant was worked out here, and repeats agree poorly.
# How the values were obtained:
# Test in all cases: odorant receptor activation (CRE luciferase / Renilla) (fold of no-odor wells); higher = more activation
# Settings in all cases: 100 µM
# [1] = system: OR9K2 clone 1389
# [2] = system: OR9Q1 A2V clone 1713
# [3] = system: OR9Q2 C179R clone 1310
# [4] = system: OR9Q2 clone 1177
# [5] = system: OR9Q2 clone 1501
# [6] = system: pseudo clone 1035
# [7] = system: pseudo clone 1218
# [8] = system: pseudo clone 1380
# [9] = system: pseudo clone 1384
# [10] = system: pseudo clone 1417
SMILES,odorant receptor activation [1],odorant receptor activation [2],odorant receptor activation [3],odorant receptor activation [4],odorant receptor activation [5],odorant receptor activation [6],odorant receptor activation [7],odorant receptor activation [8],odorant receptor activation [9],odorant receptor activation [10]
CCOc1cc(C=O)ccc1O [ethyl vanillin],1.03 and 1.23,1.26,2.33 and 1.09,1.57 and 1.02,1.24 and 1.94 and 1.13,1.19 and 0.89,1.3 and 1.17,1.17 and 1.11,1.11 and 1.16,0.886 and 1.65
CS [methanethiol],0.867,1.42,0.894,1.2,0.74,1,1.21,0.88,1.08,0.68
CCC(C)=O [2-butanone],1.56,0.736,0.798,0.76,1.15,2.74,0.758,0.939,0.998,0.719
CCCCOC(C)=O [butyl acetate],0.197,0.714,0.945,1.05,1.28,1.09,1.13,0.284,0.172,0.23
